# Test results taken from US20190151274A1, “COMPOUND FOR USE IN THE TREATMENT OF A BLOOD VESSEL DISEASE” (Universitaet Potsdam, priority 2017, published 2019).
# For at least one compound, name, drawing or mass did not settle the structure.
# Tested on: CCM2 mutant zebrafish embryo
# Experiment: Treatment of CCM2 mutant zebrafish embryos, microscopic images of the heart
# Type: in vivo
# Details: 0.1 μM solution of retinoic acid, 16-51 hours after insemination; control 0.1% DMSO; FIG. 3
structure (smiles),measurement,value
CC1=C(/C=C/C(C)=C/C=C/C(C)=C/C(=O)O)C(C)(C)CCC1 [retinoic acid],balloon-like enlargement of the heart of the CCM2 mutant,strongly alleviated
